Laboratory results published in publication PMC8806772.
Results are given in words; binding and its absence hold for the method and conditions named. In cells and extracts the contact can be indirect. Some entries that bind do so weakly or less than the wild type.

Protein sequences, listed by entry. Tags and fused reporters are not part of them.
UniProt Q15910: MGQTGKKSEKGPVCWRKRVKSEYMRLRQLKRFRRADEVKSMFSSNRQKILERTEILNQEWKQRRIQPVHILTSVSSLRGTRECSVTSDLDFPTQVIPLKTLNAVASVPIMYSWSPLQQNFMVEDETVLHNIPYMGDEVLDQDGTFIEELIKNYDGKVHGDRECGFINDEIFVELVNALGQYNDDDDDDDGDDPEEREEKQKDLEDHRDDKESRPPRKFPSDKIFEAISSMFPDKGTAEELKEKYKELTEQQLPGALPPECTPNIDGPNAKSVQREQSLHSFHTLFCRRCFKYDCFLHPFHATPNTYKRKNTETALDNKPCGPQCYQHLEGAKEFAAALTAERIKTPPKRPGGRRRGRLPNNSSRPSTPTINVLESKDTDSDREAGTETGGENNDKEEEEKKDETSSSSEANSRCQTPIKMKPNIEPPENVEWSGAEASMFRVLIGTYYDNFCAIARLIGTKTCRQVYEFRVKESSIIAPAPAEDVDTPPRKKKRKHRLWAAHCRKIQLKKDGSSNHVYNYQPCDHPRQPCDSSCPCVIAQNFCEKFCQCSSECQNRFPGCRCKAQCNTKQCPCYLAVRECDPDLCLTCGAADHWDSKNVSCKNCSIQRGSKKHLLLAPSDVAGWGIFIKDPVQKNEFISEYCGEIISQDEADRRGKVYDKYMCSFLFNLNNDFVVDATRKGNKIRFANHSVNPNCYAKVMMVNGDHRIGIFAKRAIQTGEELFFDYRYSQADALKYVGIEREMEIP

Molecular target: enhancer of zeste homolog 2 (EZH2) (human (endogenous in the cultured cells; all cell lines of the paper are human)) (UniProt Q15910)
Experiment: co-IP; cells lysed in RIPA buffer with protease inhibitors; supernatant incubated overnight at 4°C with anti-CDCA7, anti-EZH2 or IgG (negative control); protein A/G beads 1 h at 4°C; three washes with lysis buffer; western blot

binding: binds
B1: cell division cycle-associated protein 7 (CDCA7) (protein, UniProt Q9BWT1 1-371)
chain: MDARRVPQKDLRVKKNLKKFRYVKLISMETSSSSDDSCDSFASDNFANTRLQSVREGCRTRSQCRHSGPLRVAMKFPARSTRGATNKKAESRQPSENSVTDSNSDSEDESGMNFLEKRALNIKQNKAMLAKLMSELESFPGSFRGRHPLPGSDSQSRRPRRRTFPGVASRRNPERRARPLTRSRSRILGSLDALPMEEEEEEDKYMLVRKRKTVDGYMNEDDLPRSRRSRSSVTLPHIIRPVEEITEEELENVCSNSREKIYNRSLGSTCHQCRQKTIDTKTNCRNPDCWGVRGQFCGPCLRNRYGEEVRDALLDPNWHCPPCRGICNCSFCRQRDGRCATGVLVYLAKYHGFGNVHAYLKSLKQEFEMQA
